The source of these data is PubChem BioAssay AID1347431 (National Center for Advancing Translational Sciences (NCATS), 2020).

Among all 1,200 compounds or so, fewer than 10 were called active. Calls come from the whole dose curve; as a rule, active = well fitted curve in the direction sought with a large enough effect; inconclusive = small, poorly fitted or top-dose-only effect, or another doubt; inactive = no such curve, though single readings can be large or run the other way. The list shows a part of the results.

This assay is described as follows: Confirmatory qHTS assay for inhibitors of Activation Induced Cytidine Deaminase (AID): UDG signals. Note: 0% is about no effect. Particulars: UDG coupled enzyme activity counter-screen; at 115 µM (top of the series) unless noted. A digest of the protocol: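 UDG readout, a counterscreen: AID (1 uM, 4/3x) plus UDG (2 U/mL, 4/3x) preincubated 10 min with compound (7.32 nM - 114 uM final), then 4 h with DJC20/DJC23 substrates at room temperature; NaOH added, fluorescence read at 560/665 nm.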
In general terms: qHTS replaces the single test concentration by a dilution series.
For `CCCCCOc1ccccc1CN1C(=O)C(=O)c2cc(C)ccc21`, the activity change, negative = inhibition is inactive: 1.68%.

Regarding `Cc1ccc(NC(=O)c2ccc3c(O)c(S(=O)(=O)c4ccc(Cl)cc4)c(=O)[nH]c3c2)cc1`, the activity change, negative = inhibition is inactive: -1.63%.

Regarding `Cc1cccc(C)c1OCC(=O)N(Cc1ccco1)Cc1ccco1`, the activity change, negative = inhibition is inactive: 4.88%.

With `O=C(CSc1nc2c([nH]c3ccccc32)c(=O)n1-c1ccccc1F)Nc1cccc(C(F)(F)F)c1`, the activity change, negative = inhibition is inactive: -13%.

As to `CCc1ccccc1-n1cnc2cc(C(=O)NC3CCCCCC3)ccc21`, the activity change, negative = inhibition was inactive: 2.16%.

As to `O=C(c1ccc(F)cc1)c1cn(Cc2ccccc2)c2cc3c(cc2c1=O)OCO3`, the activity change, negative = inhibition is inactive: 4.58%.

Take `COc1cccc(C(=O)Nc2nc3nc(-c4ccccc4)cc(=O)n3[nH]2)c1`: the activity change, negative = inhibition was inactive: -3.1%.

Consider `CCn1cc(C(=O)NCCc2ccc(OC)c(OC)c2)c(=O)c2cc(S(=O)(=O)N(C)C3CCCCC3)ccc21`, for which the activity change, negative = inhibition was inactive: -16%.

`CCn1nc(C)c2c(-c3ccccc3)cc(=O)n(C(C)C(=O)NCc3ccccc3OC)c21` (configuration not stated): the activity change, negative = inhibition is inactive: -9.24%.

On to `Cc1cc(-c2ccccc2)n2nc(-c3ccccc3)cc2n1`, for which the activity change, negative = inhibition was inactive: -0.21%.

Consider `Cc1ccc(NC(=O)N2CCN(c3cc(-c4noc(C)n4)ccc3C)CC2)c(F)c1`, for which the activity change, negative = inhibition is inactive: -1.16%.

On to `CCOc1cc(CNc2ccc(O)cc2)cc(Cl)c1OCc1ccccc1`, for which the activity change, negative = inhibition was inactive: -10.7%.

Consider `COc1ccccc1OCCSc1nc(-c2ccc(C(C)(C)C)cc2)nc2cc(=O)[nH]n12`, for which the activity change, negative = inhibition is inactive: 8.97%.

As for `COc1ccc(CNC(=O)c2cnn3c(C)c(Cc4c(F)cccc4Cl)c(C)nc23)cc1`, the activity change, negative = inhibition was inactive: -1.61%.

Take `Cc1ccc(C)c(N(C)C(=O)C2CCN(c3ncnc4c3nc3n4CCCCC3)CC2)c1`: the activity change, negative = inhibition was inactive: 2.18%.

Turning to `Cc1cc(C)n2c(Nc3ccc4c(c3)OCCO4)c(-c3ccccc3)nc2n1`, the activity change, negative = inhibition was inactive: -0.88%.

With `Cc1cccc(CN2C(=O)c3ccccc3Sc3ccc(C(=O)N4CCCC4)cc32)c1`, the activity change, negative = inhibition was inactive: -12%.

Consider `CCCCN(CC)CCNC(=O)c1cc2c(-c3ccc(Cl)cc3)nn(C)c2s1`, for which the activity change, negative = inhibition is inactive: -5.16%.

Turning to `COc1ccc(OCCCn2c(=O)oc3ccc(C)cc32)cc1`, the activity change, negative = inhibition was inactive: -5.37%.

As to `CCC(=O)N1CCc2cc(Br)cc(S(=O)(=O)CCC(=O)N(C)c3cccc(C)c3)c21`, the activity change, negative = inhibition is inactive: 1.23%.

With `O=C1CC(c2nc3ccccc3n2CCC2CCCCC2)CN1c1ccccc1Cl` (configuration not stated), the activity change, negative = inhibition was inactive: -1.15%.

Consider `CC(=O)O[C@H]1C[C@@H]2CC[C@@H]3[C@H](CC[C@@]4(C)[C@H]3C[C@H]([N+]3(C)CCCCC3)[C@@H]4OC(C)=O)[C@@]2(C)C[C@@H]1[N+]1(C)CCCCC1`, for which the activity change, negative = inhibition was inactive: 4.17%.

For the molecule `CC(=O)N1CCc2c(sc3c2c(=O)n(Cc2ccccc2)c(=O)n3Cc2cccc(Cl)c2)C1`, the activity change, negative = inhibition is inactive: -4.28%.

With `CCN(CC)C(=O)C1CCCN(c2ncnc3c2c(-c2ccccc2)cn3-c2cccc(C)c2)C1` (configuration not stated), the activity change, negative = inhibition is inactive: -4.77%.

With `CCC(C)NC(=O)c1cn(CC)c2ccc(S(=O)(=O)N3CCc4ccccc4C3)cc2c1=O` (configuration not stated), the activity change, negative = inhibition is inactive: -9.33%.

In the case of `Cc1ccc(CNC(=O)CSCc2nc(-c3cccc(C)c3)oc2C)cc1`, the activity change, negative = inhibition is inactive: -5.25%.

For the molecule `Cc1cccc(NC(=O)COc2ccc3oc4c(c3c2)CCCC4)c1`, the activity change, negative = inhibition is inactive: -8.46%.

Consider `COc1ccccc1N1CCN(C(=O)c2cc3c(-c4ccccc4F)nn(C)c3s2)CC1`, for which the activity change, negative = inhibition is inactive: -3.23%.

`CCOc1cccc(C(=O)N(Cc2ccc(F)cc2)Cc2ccco2)c1`: the activity change, negative = inhibition is inactive: -7.98%.

Regarding `COc1cccc(-c2nc(CS(=O)CC(=O)N3CCN(c4cccc(C(F)(F)F)c4)CC3)c(C)o2)c1` (configuration not stated), the activity change, negative = inhibition is inactive: -5.34%.

With `CCc1ccc(CNC(=O)CSCc2cnn(-c3ccccc3)c2-n2cccc2)cc1`, the activity change, negative = inhibition was inactive: -10.6%.

Take `Cc1ccccc1Cc1c(C)nc2nc(SCC(=O)NC(C)c3ccccc3)nn2c1C` (configuration not stated): the activity change, negative = inhibition is inactive: -3.9%.

For `O=S(=O)(Nc1nc2n(n1)C(c1ccccc1)C=C(c1ccc(Cl)cc1)N2)c1ccccc1` (configuration not stated), the activity change, negative = inhibition was inactive: 9.34%.

As for `CCc1ccc(/C=C2/SC(=S)NC2=O)cc1`, the activity change, negative = inhibition was inactive: -6.97%.

For `CC(Sc1nc(-c2ccccc2)c(C#N)c(=O)[nH]1)C(=O)Nc1ccc(F)cc1` (configuration not stated), the activity change, negative = inhibition is inactive: 4.99%.

`Cc1ccc(CSc2nc(=O)c3c(C)cc(C)nc3n2C2CC2)cc1`: the activity change, negative = inhibition is inactive: -2.33%.

Regarding `COc1ccc(C(=O)c2cn(Cc3ccccc3F)c3ccc(F)cc3c2=O)cc1`, the activity change, negative = inhibition is inactive: -4.88%.

For the molecule `Cc1ccc(CNC(=O)c2cnn3c(C)c(Cc4c(F)cccc4Cl)c(C)nc23)cc1`, the activity change, negative = inhibition was inactive: -4.23%.

Turning to `CCN(CC)CCOC(=O)c1ccc(NC(=O)CSc2cc(=O)n(CC)c3ccccc23)cc1`, the activity change, negative = inhibition is inactive: 4.77%.

Turning to `Cc1ccccc1Cn1c(SCc2ccc(C(=O)NC3CCCC3)cc2)nc2ccncc21`, the activity change, negative = inhibition was inactive: 12.1%.

As for `Cc1ccc(-n2cnc3cc(C(=O)NCc4ccccc4Cl)ccc32)c(C)c1`, the activity change, negative = inhibition is inactive: 3.32%.

Consider `Cc1nc2nc(SCC(=O)N(Cc3ccccc3)C(C)C)nn2c(C)c1Cc1ccccc1Cl`, for which the activity change, negative = inhibition was inactive: -10.1%.

Take `CCCCOc1ccc(Cn2c(=O)sc3ccccc32)cc1`: the activity change, negative = inhibition was inactive: 2.94%.

Turning to `CCCN(CCC)CC(O)Cn1cc(/C=C/C(=O)c2ccc(OCC)cc2)c2ccccc21` (configuration not stated), the activity change, negative = inhibition is inactive: -8.01%.

Take `CCCCCn1c(=N)n(CC(O)COc2cccc(C)c2)c2ccccc21` (configuration not stated): the activity change, negative = inhibition was inactive: -10.6%.

Consider `COc1ccc2c(c1)c(=O)c(C(=O)c1ccc(C)cc1)cn2Cc1ccccc1F`, for which the activity change, negative = inhibition was inactive: -6.28%.

As to `COC(=O)c1ccc(Cl)cc1NC(=O)Nc1nnc(N(C)Cc2ccccc2)s1`, the activity change, negative = inhibition was inactive: 4.78%.

For the molecule `COc1ccc(OC)c(-c2noc(N3CCN(c4cc(Cl)ccc4C)CC3)n2)c1`, the activity change, negative = inhibition is inactive: -10.3%.

Take `CCc1ccc(CNC(=O)C(CC)n2nc(C)c3c(C)n(-c4ccccc4)nc3c2=O)cc1` (configuration not stated): the activity change, negative = inhibition is inactive: -10.4%.

For the molecule `CCOC(=O)C1CCCN(C(=O)c2cc3c(Cl)nc4ccccc4c3s2)C1` (configuration not stated), the activity change, negative = inhibition was inactive: 8.83%.

On to `Fc1ccc(F)c(Nc2c3c(nc4ccc(Cl)cc24)CCC3)c1`, for which the activity change, negative = inhibition is inactive: 2.19%.

Consider `Cc1ccccc1Cn1c(=O)n(CC2CCC(C(=O)N3CCC(C)CC3)CC2)c(=O)c2sccc21` (configuration not stated), for which the activity change, negative = inhibition was inactive: -12.1%.
